According to article PMC7819943, “Rice protein-binding microarrays: a tool to detect cis-acting elements near promoter regions in rice”:
The list shows a part of the results.

Protein sequences, listed by entry. Tags and fused reporters are not part of them.
UniProt Q0JBA9, entry or part of it: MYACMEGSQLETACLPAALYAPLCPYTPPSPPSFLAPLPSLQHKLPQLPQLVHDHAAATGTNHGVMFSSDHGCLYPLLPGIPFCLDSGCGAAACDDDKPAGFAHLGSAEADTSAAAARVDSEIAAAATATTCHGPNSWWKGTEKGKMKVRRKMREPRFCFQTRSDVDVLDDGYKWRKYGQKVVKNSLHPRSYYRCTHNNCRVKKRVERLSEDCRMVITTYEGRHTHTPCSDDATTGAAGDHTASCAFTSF

molecular target: OsWRKY34 (Oryza sativa, UniProt Q0JBA9 1-250); test: protein-binding microarray (RPBM); PBS, 2% BSA, 51.3 ng/ul salmon testes DNA, 50 uM zinc acetate, 200 nM TF, 25 C, 1 h; high values mean tight binding; settings: protein: recombinant; tags: N-terminal polyhistidine and DsRed monomer fusion (pET32a); label: CyDye5-dUTP incorporated in the synthesized complementary strand; 3' TTTTT single-stranded linker to array surface; dsDNA, one strand shown
Summary of the method: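 Transcription factors, each fused N-terminally to a polyhistidine tag and DsRed, were expressed in E. coli BL21-CodonPlus and purified on Ni–NTA. A custom Agilent array was made double-stranded by primer extension with Cy5-dUTP and blocked with 2% BSA. It was incubated with 200 nM protein in PBS, 2% BSA, salmon testes DNA and 50 µM zinc acetate at 25 °C for 1 h, then washed. The binding signal is per-feature fluorescence intensity (arbitrary units) read on an Axon 4000B scanner.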

Sequence	binding signal
GTATACTGTTCCGTGTTCCCGCGTATGCACTAGTATGTCACGGAGTCACCTAGTGCAG	13600 fluorescence intensity (a.u.)
GGTAGGGTGGGGATGGGGTGTGTGCTAGCAATCCCGGTGGCGGAGTCACCTAGTGCAG	11900 fluorescence intensity (a.u.)
ACCCGTCGCCTTTCTATTTCCCAATCCTGCGGCCAATCCGCGGAGTCACCTAGTGCAG	11000 fluorescence intensity (a.u.)
GGACGAGAACTAAGCAAAGCTCACACGTTTCATTGACGTTCGGAGTCACCTAGTGCAG	8060 fluorescence intensity (a.u.)
ACCATCTGTCCTTGTACTGCGCCCGTAGCATACCACCCCACGGAGTCACCTAGTGCAG	11300 fluorescence intensity (a.u.)
TCGAGCTCTCACCGCCCCGATGCTCACTCCATCTTGATCACGGAGTCACCTAGTGCAG	8740 fluorescence intensity (a.u.)
TCTCTTCCTTGCTGTGGTGGCGGCGGGCGGGAGGGCGGCGCGGAGTCACCTAGTGCAG	35000 fluorescence intensity (a.u.)
TTTAATATTCTACGTGGTCTAAATTATTCTCTGAAATTTTCGGAGTCACCTAGTGCAG	8970 fluorescence intensity (a.u.)
TCTCCTGACCCTTAGATCTGTTCATCCAACGGTTTATATCCGGAGTCACCTAGTGCAG	9300 fluorescence intensity (a.u.)
TGCATATGGCGAGCACACACAGGCACACAGCCGGAGCCAACGGAGTCACCTAGTGCAG	8340 fluorescence intensity (a.u.)
GATGACACTGACACCAGATGTTTCTTCTCTCTTTCAAGATCGGAGTCACCTAGTGCAG	10400 fluorescence intensity (a.u.)
ATAACCCGCCACCTCTTCTCTTCTCTTCCCTTCTCTCTTCCGGAGTCACCTAGTGCAG	10200 fluorescence intensity (a.u.)
TTAAGGGCATGTTTAGTTCTCAAACAAAATTTTCTAGCTGCGGAGTCACCTAGTGCAG	8270 fluorescence intensity (a.u.)
ACTGACAGGAGGCGTGGAGTTGTTGAGGTACTACTTTTATCGGAGTCACCTAGTGCAG	8710 fluorescence intensity (a.u.)
CATGCATGTTAGCACGTAGGTGGCGTTTGTCTTTTATCAACGGAGTCACCTAGTGCAG	9200 fluorescence intensity (a.u.)
TTTTTCCTTTGCTTTTTGTCAACCCAGGTGCAATATTCTGCGGAGTCACCTAGTGCAG	9080 fluorescence intensity (a.u.)
GTTCATCGGACATTGCCATCGTATAGTCCAATTCTCGTGCCGGAGTCACCTAGTGCAG	8320 fluorescence intensity (a.u.)
TTCTCTCCTTTTTACCTGGGGCACTAGTACATACTGTACCCGGAGTCACCTAGTGCAG	10200 fluorescence intensity (a.u.)
TCAGAAATTCTACCATCCACCGAGGTATTTTTACTTAGATCGGAGTCACCTAGTGCAG	9530 fluorescence intensity (a.u.)
GTCAAGCTCCTCTCCGACGGCCGCTGCTTCTTTCCCCGCTCGGAGTCACCTAGTGCAG	10400 fluorescence intensity (a.u.)
CAATCTCTCGCGTCCCTCTCGCTCTCTTCCCGCTATTCTTCGGAGTCACCTAGTGCAG	10000 fluorescence intensity (a.u.)
TAAGTTACTTTATGTGTTCTGGCTTGGGCCTTCCGTGTGACGGAGTCACCTAGTGCAG	8100 fluorescence intensity (a.u.)
TCTATGTCTAACTTTGATCGCTTGTCTTATTTGAAGTTTTCGGAGTCACCTAGTGCAG	9330 fluorescence intensity (a.u.)

Looked up one by one from the list above:
Sequence	binding signal
ACCATCTGTCCTTGTACTGCGCCCGTAGCATACCACCCCACGGAGTCACCTAGTGCAG	11300 fluorescence intensity (a.u.)
GATGACACTGACACCAGATGTTTCTTCTCTCTTTCAAGATCGGAGTCACCTAGTGCAG	10400 fluorescence intensity (a.u.)
